Measured values: PMC6504076, “An in vivo half-life extended prolactin receptor antagonist can prevent STAT5 phosphorylation” (PLoS ONE, 2019)
These are yes or no findings as the source states them, for the method shown. Where a sequence is shown, tags or fusion partners need not be part of it.

Biological target: prolactin receptor antagonist PrlRA (human) (UniProt P01236)
Assay: SEC; Superdex 75 increase 5/150 GL, PBS, 0.45 mL/min, native conditions; both purified

B1: prolactin receptor antagonist PrlRA (ligand, human)
chain: MGSSRSQVTLRDLFDRAVVLSHYIHNLASEMFSEFDKRYTHGRGFITKAINSCHTSSLATPEDKEQALQMNQKDFLSLIVSILRSWNEPLYHLVTEVRGMQEAPEAILSKAVEIEEQTKRLLERMELIVSQVHPETKENEIYPVWSGLPSLQMADEESRLSAYYNLLHCLRRDSHKIDNYLKLLRCRIIHNNNC
binding: no binding
